Reference: US20230303681A1
No constants are given. Whether binding was seen depends on the method and setting. Some binding calls cover weakened binding; strength is not graded here.

Sequences of proteins named here, by UniProt entry; tags and fusion partners are left off. A change or cut given only in a name is not applied to a line headed by its entry.
UniProt Q9NUM4: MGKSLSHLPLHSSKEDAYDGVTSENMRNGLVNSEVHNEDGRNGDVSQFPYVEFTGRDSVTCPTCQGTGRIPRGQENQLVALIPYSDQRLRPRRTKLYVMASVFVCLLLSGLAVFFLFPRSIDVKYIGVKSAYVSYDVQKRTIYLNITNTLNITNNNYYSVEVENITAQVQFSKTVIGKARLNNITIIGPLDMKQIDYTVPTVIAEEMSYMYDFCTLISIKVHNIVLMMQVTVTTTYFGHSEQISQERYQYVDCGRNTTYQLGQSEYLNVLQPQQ
UniProt Q80X71: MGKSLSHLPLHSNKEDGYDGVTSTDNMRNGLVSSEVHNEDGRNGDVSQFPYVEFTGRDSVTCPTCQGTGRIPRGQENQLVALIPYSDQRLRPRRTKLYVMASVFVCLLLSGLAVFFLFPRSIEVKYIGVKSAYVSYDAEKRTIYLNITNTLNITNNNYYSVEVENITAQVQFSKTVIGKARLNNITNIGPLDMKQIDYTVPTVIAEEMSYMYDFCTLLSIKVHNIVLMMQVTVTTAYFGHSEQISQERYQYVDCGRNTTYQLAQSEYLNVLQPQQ

What was measured:
[1] = target: cynomolgus (cyno) TMEM106B (cynomolgus); assay: as told for bin 3 and bin 4 antibodies
[2] = target: human TMEM106B (human) (UniProt Q9NUM4); assay: as told for bin 3 and bin 4 antibodies
[3] = target: mouse TMEM106B (mouse) (UniProt Q80X71); assay: as told for bin 3 and bin 4 antibodies
[4] = target: human TMEM106B (human) (UniProt Q9NUM4); assay: FACS, A549 and HEK+huTMEM, maximum signal
[5] = target: GST-fusion human TMEM106B truncated (human); assay: ELISA, supernatant
[6] = target: cynomolgus (cyno) TMEM106B (cynomolgus); assay: as told for community 1 antibodies
[7] = target: human TMEM106B (human) (UniProt Q9NUM4); assay: as told for community 1 antibodies
[8] = target: mouse TMEM106B (mouse) (UniProt Q80X71); assay: as told for community 1 antibodies

Measured: binding

B1: anti-TMEM106B antibody TM-7 (antibody, V domains shown)
VH: EVQLQQSGPVLVKPGPPVKISCKASGFTFTDYYIHWVKLSHGKSLEWIGLVYPYNGDTDYNQKFKGKATLTVDTSSSTAYMELNSLTSEDSAVYYCARTYYANSPDYWGQGTTVTVSS
VL: DIVMTQSPSSLSVSAGEKVTMSCKSSQSLLNSGNQRNYLAWYQQKPGQPPKLLIYGASTRESGVPDRFTGSGSGTDFTLTISNVQAEDLAVYYCQNDHSYPLTFGAGTKLELK
binds: [1] | [2] | [3] | [4] | [5]

B2: anti-TMEM106B antibody TM-30 (antibody, V domains shown)
VH: QVQLQQSGPELVKPGASVKLSCKASDNTFTNYDVNWVRQRPGQGLEWIGWIYPRDGTTIYNEKFKGRATLTVDTSSSTAYMELHSLTSEDSAVFFCARTLPQAMDYWGQGTSVTVSS
VL: DVLMTQSPLSLPVSLGDQVSISCRSSQTIVHRNGNTYLEWYLQKPGQSPKLLIYKVSNRFSGVPDRFSGSGSGTDFTLKISRVEAEDLGVYYCFQGSHLPWTFGGGTKLEIK
binds: [4]

B3: anti-TMEM106B antibody TM-26 (antibody, V domains shown)
VH: QVQLQQSGAELIRPGTSVKVSCKASGYAFTNYLIEWVKKRPGQGLEWIGVINPGSGITNYNEKFKGKATLTADKSSSTAYMQLSSLTSEDSAVYFCARSDFITTVVADYWGQGTTVTVSS
VL: DIVVTQTPLSLPVSFGDQVSISCRSSQSLTNYYGNTYLSWYLHKPGQSPQLLIYGISNRFSGVPDRFSGSGSGTDFTLKISTIKPEDLGMYYCLQGTHQPRTFGGGTKLEIK
binds: [6] | [7] | [8] | [5]

B4: anti-TMEM106B antibody TM-3 (antibody, V domains shown)
VH: QVTLKESGPGIVQPSQTLSLTCSFSGFSLNTLGRGVGWIRQPSGKGLEWLAKIWWNDDKFYYPALKSRLTISKDTSKNQIFLKIANVDTADSATYYCARIAGGTGAAYWGQGTTLTVSS
VL: DIVMTQAAFSNPVTLGTSASISCRSSKSLLHSNGITYLYWYLQKPGQSPQLLISQMSSLASGVPDRFSSGGSGTDFTLRISRVEAEDVGVFYCAQNLELPWTFGGGTKLELK
binds: [4] | [5]
